Measurements reported in PubChem BioAssay (NCATS).
Inconclusive results, whose numbers are uncertain, are shown with a selection of clear calls. Where the call is inconclusive, the potency comes from a doubtful curve fit. Activity calls are given as the source filed them. Calls follow the shape of the dose curve; as a rule, active = well fitted inhibition curve with a large enough effect; inconclusive = small, poorly fitted or top-dose-only effect; inactive = no such curve, though single readings can be large or run the other way.
% is scaled to controls: 0 for no effect and ±100 for the full control effect; potency is read from the fitted curve at half-maximal effect.

These molecules were tested against Retinaldehyde dehydrogenase 3 (Homo sapiens) (UniProt P47895) (assay: qHTS for Inhibitors of the Aldehyde Dehydrogenase Family (ALDH1A3) Validation screen (AID 2061312; also: nearly all actives have a fitted effect of over 45% in size)). Conditions: ALDH1A3 enzyme inhibition qHTS validation, fluorescence; activity change, negative = inhibition: at 84.7 µM (top of the series).
For `N=c1c[n+](N2CCOCC2)[n-]o1`, the Potency was inconclusive: 35.5 µM [inhibitor, partial curve, poor fit]. `[N-]=[N+]=Nc1ccc(C(=O)CSC[C@H](NC(=O)CC[C@H](N)C(=O)O)C(=O)NCC(=O)O)cc1` was tested, and the Potency was inconclusive: 2.51 µM [inhibitor, partial curve, poor fit]. For `COc1ccccc1Oc1ccc(N(Cc2cccnc2)S(=O)(=O)CC(F)(F)F)cc1`, the “activity change, negative = inhibition” value was inactive: -7.91%. With `CC(C)NCCCn1c(Sc2cc3c(cc2I)OCO3)nc2c(N)ncnc21` the Potency was inconclusive: 2.24 µM [inhibitor, full curve, poor fit]. For `Cc1nc(Nc2ccc(F)cc2)nc(N2CCc3ccccc3C2C)c1C` (stereo not given), the “activity change, negative = inhibition” value was inactive: 15.2%. For `COC(=O)c1ccc2c(c1)[nH]c1ncnc(NCCCN3CCCCC3)c12`, the Potency was active: 31.6 µM. In the case of `CCNC(=O)Nc1ccc(-c2nc3c(c(N4CCOCC4C)n2)CCN(C2COC2)C3)cc1` (stereo not given), the Potency is reported as inconclusive: 11.2 µM [inhibitor, full curve]. With `CCC1C(=O)N(C)c2cnc(Nc3ccc(C(=O)NC4CCC(N5CCN(CC6CC6)CC5)CC4)cc3OC)nc2N1C(C)C` (stereo not given) the “activity change, negative = inhibition” value was inactive: 198%. With `CN1CCC[C@@H]1Cc1c[nH]c2ccc(CCS(=O)(=O)c3ccccc3)cc12` the “activity change, negative = inhibition” value was inactive: 19.6% [at 42.4 µM]. With `C=C(C)[C@@H]1CC=C(COC(=O)NC(=O)c2ncn3c(=O)n(C)nnc23)CC1` the Potency was inconclusive: 1.58 µM [inhibitor, full curve, poor fit]. `O=c1[nH]cnc2c1ncn2[C@H]1CC[C@@H](CO)O1` was tested, and the Potency was inconclusive: 3.16 µM [inhibitor, full curve, poor fit]. In the case of `NC(=O)N1c2ccccc2C=Cc2ccccc21`, the “activity change, negative = inhibition” value is reported as inactive: 2.83% [at 42.4 µM]. `O=C1CC2(CCCC2)[C@H](O)C(=O)N1CCCCN1CCN(c2ncccn2)CC1` was tested, and the “activity change, negative = inhibition” value was inactive: 12.3%. With `O=C(NCc1ccccn1)Nc1nnc(-c2ccco2)o1` the “activity change, negative = inhibition” value was inactive: 21%. In the case of `CCC[C@@H](NC(=O)N1C(=O)C(CC)(CC)[C@@H]1Oc1ccc(C(=O)N2CCN(C)CC2)cc1)c1ccc2c(c1)OCO2`, the Potency is reported as inconclusive: 35.5 µM [inhibitor, partial curve]. In the case of `Nc1ncnc2c1ncn2[C@H]1O[C@@H](C(=O)N2CCN(CC(=O)Nc3cccc4c3CNC4=O)CC2)[C@H](O)[C@@H]1O`, the Potency is reported as inconclusive: 1.41 µM [inhibitor, full curve]. For `NC(Cc1cccc(-c2ccccc2CP(=O)(O)O)c1)C(=O)O` (stereo not given), the Potency was inconclusive: 22.4 µM [inhibitor, partial curve, poor fit]. For `c1ccc(C(OC2CCN(CCCc3nn[nH]n3)CC2)c2ccccc2)cc1`, the “activity change, negative = inhibition” value was inactive: 24.4%. For `CC(N)(Cc1ccc(O)c(O)c1)C(=O)O` (stereo not given), the Potency was inconclusive: 12.6 µM [inhibitor, single point]. In the case of `CC(C)(C)c1ccc(NC(=O)N2CCN(c3ncccc3Cl)CC2)cc1`, the Potency is reported as inconclusive: 79.4 µM [inhibitor, partial curve, poor fit]. In the case of `OC(CCN1CCCCC1)(c1ccccc1)C1CCCCC1` (stereo not given), the “activity change, negative = inhibition” value is reported as inactive: 1.44% [at 42.4 µM]. `O=C(CC1CC(c2ccc(F)cc2F)=NO1)N1CCOCC1` (stereo not given) was tested, and the Potency was inconclusive: 2.24 µM [inhibitor, full curve, poor fit]. In the case of `CCOc1nc2cccc(C(=O)O)c2n1Cc1ccc(-c2ccccc2-c2nn[nH]n2)cc1`, the Potency is reported as inconclusive: 11.2 µM [inhibitor, full curve, poor fit]. With `CC1C(=O)N(C)C(=O)c2nc[nH]c21` (stereo not given) the “activity change, negative = inhibition” value was inactive: 17% [at 42.4 µM]. With `C#Cc1cnc2[nH]c(=O)n(C(CC)CC)c2n1` the Potency was inconclusive: 3.16 µM [inhibitor, full curve, poor fit]. In the case of `O=C(Nc1nc2ccc([N+](=O)[O-])cc2s1)C1CCCCC1`, the Potency is reported as active: 3.98 µM. With `COc1cn(-c2ccc(-n3cccn3)cc2F)nc(-c2ccnn2-c2ccccc2)c1=O` the Potency was inconclusive: 22.4 µM [inhibitor, full curve]. With `O=C(c1ccc(OCCCc2cnc[nH]2)cc1)C1CC1` the “activity change, negative = inhibition” value was inactive: -6.52% [at 42.4 µM]. For `CC(=O)NCC1CN(c2ccc(-c3ccc(CNCc4cn[nH]n4)cc3)c(F)c2)C(=O)O1` (stereo not given), the Potency was active: 3.98 µM. For `CC(C)(C(=O)O)c1ccc(C(O)CCCN2CCC(C(O)(c3ccccc3)c3ccccc3)CC2)cc1` (stereo not given), the Potency was “inactive”. With `COc1ccc(C#Cc2ccc(C(=O)N3CCC[C@@H](CO)C3)cc2)cc1` the “activity change, negative = inhibition” value was inactive: 72.5%. With `CCc1c(C)[nH]c2c1C(=O)C(CN1CCOCC1)CC2` (stereo not given) the Potency was inconclusive: 1.26 µM [inhibitor, full curve, poor fit]. For `COC(=O)CCSCc1ccc(-c2onc(C)c2NC(=O)OC(C)c2ccccc2Cl)cc1` (stereo not given), the Potency was inconclusive: 39.8 µM [inhibitor, single point]. With `O=C(O)Cc1c[nH]c2ccc(O)cc12` the Potency was inconclusive: 12.6 µM [inhibitor, partial curve, poor fit]. With `O=C(O)c1ccccc1Nc1ccccc1` the “activity change, negative = inhibition” value was inactive: 14.5% [at 42.4 µM]. For `CCOC(=O)N1CCC(N2CCC[C@@H](NC(=O)c3ccccc3C)C2)CC1`, the Potency was inconclusive: 14.1 µM [inhibitor, full curve]. In the case of `COc1ccccc1CNCCCCCCNCCCCCCCCNCCCCCCNCc1ccccc1OC`, the Potency is reported as inconclusive: 6.31 µM [inhibitor, partial curve, poor fit]. With `CC1=C(C(=O)O)N2C(=O)[C@@H](NC(=O)C(N)c3ccccc3)[C@H]2SC1` (stereo not given in full) the “activity change, negative = inhibition” value was inactive: -5.44% [at 42.4 µM]. For `C[C@](Cc1ccc(O)c(O)c1)(NN)C(=O)O`, the Potency was inconclusive: 5.01 µM [inhibitor, partial curve]. In the case of `NC(C(=O)N[C@@H]1C(=O)N2C(C(=O)O)=C(Cl)CS[C@H]12)c1ccccc1` (stereo not given in full), the Potency is reported as inconclusive: 3.98 µM [inhibitor, partial curve].
